The name of at least one read-out is uncertain.
Assay: Rat PK after oral and IV administration
Type: in vivo
Details: 3 mg/kg, glucose 5%

COCc1ccc(NC(=O)c2c(C#CCN3CCOCC3)n(C3(C)CC3)c3ncnc(N)c23)cc1 [HM06/TAS0953, 4-amino-N-(4-(methoxymethyl)phenyl)-7-(1-methylcyclopropyl)-6-(3-morpholinoprop-1-yn-1-yl)-7H-pyrrolo[2,3-d]pyrimidine-5-carboxamide]
VSS/F: 1.6 L/kg

— patent publication US20240000791A1, “Methods of Using 4-Amino-N-[4-(Methoxymethyl)Phenyl]-7-(1-Methylcyclopropyl)-6-(3-Morpholinoprop-1-YN-1-YL)-7H-Pyrrolo[2,3-D]Pyrimidine-5-Carboxamide for the Treatment of Tumors” (Helsinn Healthcare SA, priority 2020, published 2024)
